Assay results reported in the M2OR odorant receptor database.
The list shows a part of the results, in another mix than the full data. Calls are pooled over several reports, among them a noisy single-well screen.

Amino acid sequences for entries named in this document (tags omitted). A change or cut given only in a name is not applied to a line headed by its entry.
UniProt O60403: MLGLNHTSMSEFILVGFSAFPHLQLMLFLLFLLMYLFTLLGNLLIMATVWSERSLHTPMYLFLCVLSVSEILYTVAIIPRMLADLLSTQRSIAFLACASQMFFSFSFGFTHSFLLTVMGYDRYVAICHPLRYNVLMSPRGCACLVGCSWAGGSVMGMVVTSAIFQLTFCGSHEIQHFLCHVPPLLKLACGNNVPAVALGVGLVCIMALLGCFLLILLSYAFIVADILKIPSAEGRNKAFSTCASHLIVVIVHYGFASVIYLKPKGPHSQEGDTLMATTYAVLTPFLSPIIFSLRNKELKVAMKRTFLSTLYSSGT
UniProt Q8NGN4: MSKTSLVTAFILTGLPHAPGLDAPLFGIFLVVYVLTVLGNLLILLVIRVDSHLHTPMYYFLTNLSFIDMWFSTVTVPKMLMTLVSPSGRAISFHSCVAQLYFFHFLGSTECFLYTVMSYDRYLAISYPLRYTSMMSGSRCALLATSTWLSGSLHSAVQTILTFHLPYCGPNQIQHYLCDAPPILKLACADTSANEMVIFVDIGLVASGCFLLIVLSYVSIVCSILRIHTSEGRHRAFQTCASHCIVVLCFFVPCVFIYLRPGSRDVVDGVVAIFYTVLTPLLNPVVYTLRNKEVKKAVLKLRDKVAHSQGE
UniProt Q8NGA6: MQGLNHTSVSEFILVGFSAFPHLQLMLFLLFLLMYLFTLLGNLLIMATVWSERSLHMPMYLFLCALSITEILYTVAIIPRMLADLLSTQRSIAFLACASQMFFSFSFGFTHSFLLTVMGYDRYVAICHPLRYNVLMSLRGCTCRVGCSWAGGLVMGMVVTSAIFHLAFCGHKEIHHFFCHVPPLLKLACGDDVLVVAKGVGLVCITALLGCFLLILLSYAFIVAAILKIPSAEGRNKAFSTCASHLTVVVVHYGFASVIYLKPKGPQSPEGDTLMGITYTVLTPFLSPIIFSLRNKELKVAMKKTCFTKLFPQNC
UniProt P30954: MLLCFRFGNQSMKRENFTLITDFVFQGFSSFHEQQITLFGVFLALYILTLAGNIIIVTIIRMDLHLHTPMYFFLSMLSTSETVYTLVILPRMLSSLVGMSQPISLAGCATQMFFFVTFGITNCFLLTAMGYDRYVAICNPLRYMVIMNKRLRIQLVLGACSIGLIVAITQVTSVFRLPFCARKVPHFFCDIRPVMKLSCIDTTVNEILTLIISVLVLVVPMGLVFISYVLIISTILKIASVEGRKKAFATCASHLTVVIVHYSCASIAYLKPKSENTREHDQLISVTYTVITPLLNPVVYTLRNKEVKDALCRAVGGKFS
UniProt Q5JRS4: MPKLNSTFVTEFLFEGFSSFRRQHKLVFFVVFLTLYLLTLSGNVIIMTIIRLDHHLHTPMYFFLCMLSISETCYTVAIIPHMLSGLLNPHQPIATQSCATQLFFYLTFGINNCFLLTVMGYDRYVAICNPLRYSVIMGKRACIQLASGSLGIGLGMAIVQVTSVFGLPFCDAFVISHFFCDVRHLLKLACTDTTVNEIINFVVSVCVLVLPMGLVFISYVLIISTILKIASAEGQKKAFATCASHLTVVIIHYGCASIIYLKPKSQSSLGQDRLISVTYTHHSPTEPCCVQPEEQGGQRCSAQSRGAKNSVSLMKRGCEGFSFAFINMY

Assays:
Conditions in all cases: stereoisomer not certain
[1] = molecular target: T1, OR10G8 (Homo sapiens) (UniProt Q8NGN5)
T1 sequence (whole entry): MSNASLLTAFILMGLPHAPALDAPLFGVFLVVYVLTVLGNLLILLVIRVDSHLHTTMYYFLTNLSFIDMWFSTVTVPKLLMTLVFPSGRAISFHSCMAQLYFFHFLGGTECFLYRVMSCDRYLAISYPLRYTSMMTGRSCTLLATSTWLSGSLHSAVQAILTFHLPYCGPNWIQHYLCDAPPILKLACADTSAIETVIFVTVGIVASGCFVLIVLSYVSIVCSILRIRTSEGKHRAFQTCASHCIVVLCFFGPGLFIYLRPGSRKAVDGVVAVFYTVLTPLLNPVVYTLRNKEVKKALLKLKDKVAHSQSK
In short: (§1)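 Transient luciferase assays in mammalian cell lines were common, though methods varied by source. The values come from published papers and their supplementary material, with extra details from the original authors when needed. Responsive refers to a measured signal the original authors judged statistically different from baseline, and non-responsive (inactive) to the remainder.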

[2] = molecular target: T2, OR10H1 (Homo sapiens) (UniProt Q9Y4A9)
T2 sequence (whole entry): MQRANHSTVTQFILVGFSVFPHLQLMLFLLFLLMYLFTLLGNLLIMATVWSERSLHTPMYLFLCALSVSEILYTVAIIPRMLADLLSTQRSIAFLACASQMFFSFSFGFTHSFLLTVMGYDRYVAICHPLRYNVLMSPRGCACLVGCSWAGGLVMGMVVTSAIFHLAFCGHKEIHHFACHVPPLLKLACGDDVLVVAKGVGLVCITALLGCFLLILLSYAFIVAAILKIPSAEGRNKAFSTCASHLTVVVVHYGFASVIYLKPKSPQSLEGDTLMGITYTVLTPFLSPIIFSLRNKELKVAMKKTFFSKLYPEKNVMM
In short: as §1

[3] = molecular target: T3, OR10H3 (Homo sapiens) (UniProt O60404)
T3 sequence (whole entry): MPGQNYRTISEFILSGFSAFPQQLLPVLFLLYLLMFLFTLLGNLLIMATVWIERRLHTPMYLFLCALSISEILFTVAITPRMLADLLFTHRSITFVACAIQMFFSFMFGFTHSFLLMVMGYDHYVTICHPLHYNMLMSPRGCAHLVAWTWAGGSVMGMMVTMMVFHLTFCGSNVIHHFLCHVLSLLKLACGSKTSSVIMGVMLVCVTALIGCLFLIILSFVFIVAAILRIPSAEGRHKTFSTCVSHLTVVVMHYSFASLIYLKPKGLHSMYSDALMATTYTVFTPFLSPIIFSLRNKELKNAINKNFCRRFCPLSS
In short: as §1

[4] = molecular target: T4, OR10H4 (Homo sapiens) (UniProt Q8NGA5)
T4 sequence (whole entry): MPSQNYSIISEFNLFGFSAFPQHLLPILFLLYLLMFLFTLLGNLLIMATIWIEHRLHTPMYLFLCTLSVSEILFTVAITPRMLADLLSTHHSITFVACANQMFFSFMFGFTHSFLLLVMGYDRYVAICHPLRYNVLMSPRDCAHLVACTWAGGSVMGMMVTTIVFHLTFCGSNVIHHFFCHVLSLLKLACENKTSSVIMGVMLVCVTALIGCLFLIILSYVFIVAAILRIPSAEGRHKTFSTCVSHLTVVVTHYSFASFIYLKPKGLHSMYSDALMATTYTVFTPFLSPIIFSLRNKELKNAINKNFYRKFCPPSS
In short: as §1

[5] = molecular target: T5, OR10J5 (Homo sapiens) (UniProt Q8NHC4)
T5 sequence (whole entry): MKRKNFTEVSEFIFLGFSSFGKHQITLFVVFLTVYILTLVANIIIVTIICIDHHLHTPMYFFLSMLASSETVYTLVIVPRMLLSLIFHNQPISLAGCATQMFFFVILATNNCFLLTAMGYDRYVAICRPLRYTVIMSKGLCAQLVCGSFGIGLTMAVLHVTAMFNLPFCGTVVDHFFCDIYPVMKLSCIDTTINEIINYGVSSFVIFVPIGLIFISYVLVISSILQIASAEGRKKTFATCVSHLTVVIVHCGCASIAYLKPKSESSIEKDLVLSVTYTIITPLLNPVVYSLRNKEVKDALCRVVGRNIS
In short: as §1

[6] = molecular target: OR10H2 (Homo sapiens) (UniProt O60403)
In short: as §1

[7] = molecular target: OR10G9 (Homo sapiens) (UniProt Q8NGN4)
In short: as §1

[8] = molecular target: OR10H5 (Homo sapiens) (UniProt Q8NGA6)
In short: as §1

[9] = molecular target: OR10J1 (Homo sapiens) (UniProt P30954)
In short: as §1

[10] = molecular target: OR10J3 (Homo sapiens) (UniProt Q5JRS4)
In short: as §1

Measured: odorant receptor agonist call

C=CCc1ccc(OC(C)=O)c(OC)c1
inactive: [1] | [2] | [3] | [4] | [5]

CC1COCc2cc3c(cc21)C(C)(C)C(C)C3(C)C (stereo unspecified)
active: [1] | [2] | [3] | [4] | [5]

CC(C)CCC(=O)O
inactive: [1] | [2] | [3] | [4] | [5]

C=CC(C)(O)CCC=C(C)C (stereo unspecified)
inactive: [1] | [2] | [3] | [4] | [5]

O=C1CCCCCCCCCCCC(=O)OCCO1
inactive: [1] | [2] | [3] | [4] | [5]

CCCCCCOC(=O)CCC
inactive: [1] | [2] | [3] | [4] | [5]

CC(=O)OCC=C(C)CCC=C(C)C
active: [6]
inactive: [1] | [2] | [3] | [4] | [5]

CCCC(=O)O
inactive: [1] | [2] | [3] | [4] | [5]

CC(=O)c1ccccc1
inactive: [1] | [2] | [3] | [4] | [5]

Ordered by heavy-atom count (low to high): three of the compounds above.
CCCC(=O)O
inactive: [1] | [2] | [3] | [4] | [5]

CC(=O)OCC=C(C)CCC=C(C)C
active: [6]
inactive: [1] | [2] | [3] | [4] | [5]

O=C1CCCCCCCCCCCC(=O)OCCO1
inactive: [1] | [2] | [3] | [4] | [5]

Later entries

COC(=O)c1ccccc1O
inactive: [1] | [2] | [3] | [4] | [5]

CCCCCC(C)=O
active: [4]
inactive: [1] | [2] | [3] | [5]

C=CCc1ccc(OC)c(OC)c1
inactive: [1] | [2] | [3] | [4] | [5]

CCCCO
inactive: [1] | [2] | [3] | [4] | [5]

O=C1CCCCC1
inactive: [1] | [2] | [3] | [4] | [5]

CCC=CCCO
inactive: [1] | [2] | [3] | [4] | [5]

COc1ccccc1O
inactive: [1] | [2] | [3] | [4] | [5]

CC12C=CCC1C1CCC3CC(=O)CCC3(C)C1CC2 (stereo unspecified)
inactive: [1] | [7] | [2] | [6] | [3] | [4] | [8] | [9] | [10] | [5]

CCCCCCCCCC=O
inactive: [1] | [2] | [3] | [4] | [5]

CCCCCC(=O)O
inactive: [1] | [2] | [3] | [4] | [5]

CC1CCC(C(C)C)C(O)C1 (stereo unspecified)
inactive: [1] | [2] | [4] | [5]
active: [3]

CC(=O)C(C)=O
inactive: [1] | [2] | [3] | [4] | [5]

CCCCCOC(C)=O
inactive: [1] | [2] | [3] | [4] | [5]

CC(C)(C)c1ccc(CCC=O)cc1
inactive: [1] | [2] | [3] | [4] | [5]

CC(C)C=O
inactive: [1] | [2] | [3] | [4] | [5]
